Results are given in words; binding and its absence hold for the method and conditions named. Binding can be weak; no strength is given. Where a sequence is shown, tags or fusion partners need not be part of it.
Target: cynomolgus monkey GPRC5D protein stably expressed on the 293T cell surface (cynomolgus monkey)
Experiment: flow cytometry on 293T cells expressing cynomolgus monkey GPRC5D

B1: camelid-derived anti-GPRC5D VHH-Fc antibody (antibody, human IgG1, V domains shown)
VH: EVQLQESGGGLVQAGGSLRLSCAASGIFLSASVMRWYRRAPGKQRELVASMLNSNTNYADSVKGRFTISRDNTKNTMYLQMNSLKPEDTAVYYCNAERSGVYWGQGTQVTVSS
binding: binds
